Taken from: PubChem BioAssay AID1671195 (Yale University, 2021)

Aim: 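Knockdowns that increase or decrease uptake of fluorescent LDL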 (primary screen)
Cells: human Huh7 hepatoma cells
Knock-down reagent: siRNA pool against human genes, 18 nM
Time to read-out: about 2 to 2.5 days of knockdown, then 8 h LDL uptake
Treatment: DiI-labelled LDL at 30 µg/ml for 8 h, in lipoprotein-deficient serum medium
Read-out: 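Per-cell DiI-LDL intensity by automated imaging; well means scaled to the plate median and given as a robust z-score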
Direction: robust z-score: higher = more LDL uptake after knockdown
Hit rule: 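a gene counts as active if at least two replicate z-scores exceed ±2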
Shown is an unselected part of about 22,000 deposited reagents. About 1,510 of them (6.9%) count as active. 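Active includes knockdowns raising or lowering LDL uptake; positive z-scores mean more uptake, negative mean less.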 Unmarked entries are inactive. The numbers tell different reagents against one gene apart.

The first 2 entries as a preview:
gene symbol	reagent	robust z-score, replicate 1	robust z-score, replicate 2	robust z-score, replicate 3
CMTM2 (GeneID 146225)	1	-0.291	-0.447	-0.46
LINC02210 (GeneID 147081)	1	0.68	0.641	0.234

Results, repeating the preview:
gene symbol	reagent	robust z-score, replicate 1	robust z-score, replicate 2	robust z-score, replicate 3
CMTM2 (GeneID 146225)	1	-0.291	-0.447	-0.46
LINC02210 (GeneID 147081)	1	0.68	0.641	0.234
LINC02210 (GeneID 147081)	2	0.601	-0.447	0.676
TXNL4B (GeneID 54957)	1	0.103	-0.498	-0.184
DNAJC27-AS1 (GeneID 729723)	1	1.6	0.654	1.17
LAD1 (GeneID 3898)	1	0.174	0.458	0.631
EXT2 (GeneID 2132)	1	-1.61	-1.54	-1.21
UBE2G1 (GeneID 7326)	1	0.633	-0.576	0.289
CIBAR1P1 (GeneID 729073)	1	0.179	0.405	-0.456
SLIRP-OT1 (GeneID 283579)	1	0.733	1.15	0.428
TPK1 (GeneID 27010)	1	-0.0299	-0.911	-0.518
PLPP1 (GeneID 8611)	1	-0.00981	-0.112	0.155
DMRTA2 (GeneID 63950)	1	1.74	1.51	1.39
SOHLH2 (GeneID 54937)	1	-0.0167	0.0129	0.541
NFKBIL1 (GeneID 4795)	1	0.516	0.455	1.2
NUTF2P4 (GeneID 128322)	1	1.46	2.01	1.82
CRACR2A (GeneID 84766)	1	2.35 (active)	1.72	2.04
CRACR2A (GeneID 84766)	2	0.0136	0.51	-0.055
PLEKHA6 (GeneID 22874)	1	0.454	-0.198	1.09
RAPGEF1 (GeneID 2889)	1	-0.147	-0.41	0.0231
LOC389370 (retired record) (GeneID 389370)	1	-0.325	-0.129	-0.464
SLC7A6OS (GeneID 84138)	1	0.398	0.526	0.275
MMACHC (GeneID 25974)	1	1.38	-1.19	1.22
PCYT1A (GeneID 5130)	1	1.7	0.962	2.25
KCNJ5-AS1 (GeneID 219833)	1	-0.941	-0.976	-0.756
PGPEP1L (GeneID 145814)	1	-0.355	-0.754	0.496
LOC441127 (retired record) (GeneID 441127)	1	1.26	1.37	1.14
ACAN (GeneID 176)	1	-0.959	-0.315	-1.22
